From article PMC11649694
Where cells or extracts were used, other partners may take part. For some assays here: A negative result means that nothing was seen under these conditions. For some assays here: Construct, isoform or probe ends are uncertain for at least one entry. For some assays here: At least one verdict rests on a figure or table, not on a statement of the authors. For some assays here: Weaker means in comparison with the reference protein, sequence or condition of that experiment.

Protein sequences, listed by entry. Tags and fused reporters are not part of them.
UniProt P10074, whole entry R611A: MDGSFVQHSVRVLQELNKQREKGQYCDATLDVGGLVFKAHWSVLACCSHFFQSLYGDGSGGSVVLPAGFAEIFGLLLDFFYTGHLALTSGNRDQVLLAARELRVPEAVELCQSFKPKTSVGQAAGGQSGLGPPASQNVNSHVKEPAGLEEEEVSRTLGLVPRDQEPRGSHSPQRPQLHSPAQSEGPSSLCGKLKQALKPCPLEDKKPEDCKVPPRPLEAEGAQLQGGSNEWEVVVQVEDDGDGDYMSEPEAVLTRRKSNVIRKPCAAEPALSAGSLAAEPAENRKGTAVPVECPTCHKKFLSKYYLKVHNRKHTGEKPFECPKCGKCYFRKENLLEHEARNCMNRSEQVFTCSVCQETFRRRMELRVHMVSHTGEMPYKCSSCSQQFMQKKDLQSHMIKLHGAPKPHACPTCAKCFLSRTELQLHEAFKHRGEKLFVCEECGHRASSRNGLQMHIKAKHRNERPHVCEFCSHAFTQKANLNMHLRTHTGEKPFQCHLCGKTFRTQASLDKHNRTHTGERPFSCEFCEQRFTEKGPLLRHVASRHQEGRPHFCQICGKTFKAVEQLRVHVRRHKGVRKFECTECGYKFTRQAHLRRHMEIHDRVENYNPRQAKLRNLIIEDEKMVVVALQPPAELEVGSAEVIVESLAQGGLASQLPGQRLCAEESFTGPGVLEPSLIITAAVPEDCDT
UniProt P10074, whole entry, stated change not applied: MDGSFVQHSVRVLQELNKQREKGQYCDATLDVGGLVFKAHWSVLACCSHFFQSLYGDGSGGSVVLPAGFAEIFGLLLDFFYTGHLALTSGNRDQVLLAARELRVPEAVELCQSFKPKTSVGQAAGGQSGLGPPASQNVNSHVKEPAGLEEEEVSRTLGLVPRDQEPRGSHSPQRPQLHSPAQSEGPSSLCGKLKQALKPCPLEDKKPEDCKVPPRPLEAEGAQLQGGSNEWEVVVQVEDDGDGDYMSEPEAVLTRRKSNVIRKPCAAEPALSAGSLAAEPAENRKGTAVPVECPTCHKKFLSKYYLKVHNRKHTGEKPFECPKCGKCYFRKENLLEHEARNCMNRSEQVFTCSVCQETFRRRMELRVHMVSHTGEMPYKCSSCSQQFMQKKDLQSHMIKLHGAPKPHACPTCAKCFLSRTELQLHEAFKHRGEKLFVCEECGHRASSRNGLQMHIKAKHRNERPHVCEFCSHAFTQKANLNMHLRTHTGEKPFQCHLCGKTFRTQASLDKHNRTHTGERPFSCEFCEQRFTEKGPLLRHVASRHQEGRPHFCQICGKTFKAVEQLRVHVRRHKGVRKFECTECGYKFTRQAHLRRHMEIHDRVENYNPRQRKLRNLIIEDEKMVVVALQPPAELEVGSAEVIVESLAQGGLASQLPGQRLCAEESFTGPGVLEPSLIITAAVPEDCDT
UniProt P10074, whole entry R611A/R614A: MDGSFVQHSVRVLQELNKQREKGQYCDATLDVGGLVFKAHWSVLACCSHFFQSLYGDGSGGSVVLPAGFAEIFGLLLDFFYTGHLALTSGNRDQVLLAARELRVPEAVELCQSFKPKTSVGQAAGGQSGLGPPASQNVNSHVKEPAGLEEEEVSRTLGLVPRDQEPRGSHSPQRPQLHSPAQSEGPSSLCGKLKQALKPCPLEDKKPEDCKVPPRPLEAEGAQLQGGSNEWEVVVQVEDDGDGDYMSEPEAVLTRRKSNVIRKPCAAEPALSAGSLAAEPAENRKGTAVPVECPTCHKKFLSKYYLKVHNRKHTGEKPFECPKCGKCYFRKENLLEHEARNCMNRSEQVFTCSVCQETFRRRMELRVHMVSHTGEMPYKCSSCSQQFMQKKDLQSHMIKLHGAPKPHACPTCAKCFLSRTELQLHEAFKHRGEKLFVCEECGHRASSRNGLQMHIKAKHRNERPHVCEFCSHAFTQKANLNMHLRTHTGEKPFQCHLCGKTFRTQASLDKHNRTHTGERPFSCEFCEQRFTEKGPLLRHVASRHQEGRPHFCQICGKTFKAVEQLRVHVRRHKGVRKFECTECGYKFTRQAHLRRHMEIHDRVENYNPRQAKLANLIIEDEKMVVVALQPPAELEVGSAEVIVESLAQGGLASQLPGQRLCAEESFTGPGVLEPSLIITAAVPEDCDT
UniProt P10074, whole entry R614A: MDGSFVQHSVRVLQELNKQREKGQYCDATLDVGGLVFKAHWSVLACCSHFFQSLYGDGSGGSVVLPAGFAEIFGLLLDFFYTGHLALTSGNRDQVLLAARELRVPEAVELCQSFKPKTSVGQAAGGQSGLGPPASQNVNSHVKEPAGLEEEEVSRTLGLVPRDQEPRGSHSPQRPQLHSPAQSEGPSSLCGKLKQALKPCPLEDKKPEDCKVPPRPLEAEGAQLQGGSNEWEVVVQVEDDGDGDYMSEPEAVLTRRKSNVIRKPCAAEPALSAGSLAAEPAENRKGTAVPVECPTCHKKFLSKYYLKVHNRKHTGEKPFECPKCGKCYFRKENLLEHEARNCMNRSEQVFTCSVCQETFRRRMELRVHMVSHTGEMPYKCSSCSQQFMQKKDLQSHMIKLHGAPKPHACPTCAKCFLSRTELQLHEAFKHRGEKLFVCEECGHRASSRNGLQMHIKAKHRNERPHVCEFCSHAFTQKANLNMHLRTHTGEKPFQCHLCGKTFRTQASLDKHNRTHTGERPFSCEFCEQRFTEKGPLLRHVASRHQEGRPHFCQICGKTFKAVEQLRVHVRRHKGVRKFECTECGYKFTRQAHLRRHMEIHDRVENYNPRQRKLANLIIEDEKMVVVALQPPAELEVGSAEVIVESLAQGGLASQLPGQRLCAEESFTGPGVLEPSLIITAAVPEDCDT

How the values were obtained:
Experiment in all cases: DNA pull-down/immunoblot
[1] = target: ZBTB48 endogenous (U2OS nuclear extract) (Homo sapiens (U2OS cells)) (UniProt P10074); conditions: Pull-down: 150 mM NaCl, 50 mM Tris-HCl pH 7.5, 5 mM MgCl2, 0.5% Igepal CA-630, 1 mM DTT, 20 ug salmon sperm DNA, 4 C 2 h; protein in an extract; label: desthiobiotin-dATP
FLAG-ZBTB48 R611A = FLAG-ZBTB48 R611A (UniProt P10074); conditions: Pull-down: 150 mM NaCl, 50 mM Tris-HCl pH 7.5, 5 mM MgCl2, 0.5% Igepal CA-630, 1 mM DTT, 20 ug salmon sperm DNA, 4 C 2 h; protein in a lysate after overexpression; residues 1-688; protein details: FLAG; label: desthiobiotin-dATP
FLAG-ZBTB48 ZnF8 mutant = FLAG-ZBTB48 ZnF8 mutant (UniProt P10074); conditions: Pull-down: 150 mM NaCl, 50 mM Tris-HCl pH 7.5, 5 mM MgCl2, 0.5% Igepal CA-630, 1 mM DTT, 20 ug salmon sperm DNA, 4 C 2 h; protein in a lysate after overexpression; residues 1-688; protein details: FLAG; label: desthiobiotin-dATP
[2] = target: FLAG-ZBTB48 delta ZnF1-9 + ZnF10 mutant (UniProt P10074); conditions: Pull-down: 150 mM NaCl, 50 mM Tris-HCl pH 7.5, 5 mM MgCl2, 0.5% Igepal CA-630, 1 mM DTT, 20 ug salmon sperm DNA, 4 C 2 h; protein in a lysate after overexpression; protein details: FLAG; label: desthiobiotin-dATP
FLAG-ZBTB48 R611A/R614A = FLAG-ZBTB48 R611A/R614A (UniProt P10074); conditions: Pull-down: 150 mM NaCl, 50 mM Tris-HCl pH 7.5, 5 mM MgCl2, 0.5% Igepal CA-630, 1 mM DTT, 20 ug salmon sperm DNA, 4 C 2 h; protein in a lysate after overexpression; residues 1-688; protein details: FLAG; label: desthiobiotin-dATP
FLAG-ZBTB48 ZnF4 mutant = FLAG-ZBTB48 ZnF4 mutant (UniProt P10074); conditions: Pull-down: 150 mM NaCl, 50 mM Tris-HCl pH 7.5, 5 mM MgCl2, 0.5% Igepal CA-630, 1 mM DTT, 20 ug salmon sperm DNA, 4 C 2 h; protein in a lysate after overexpression; residues 1-688; protein details: FLAG; label: desthiobiotin-dATP
FLAG-ZBTB48 WT = FLAG-ZBTB48 WT (UniProt P10074); conditions: Pull-down: 150 mM NaCl, 50 mM Tris-HCl pH 7.5, 5 mM MgCl2, 0.5% Igepal CA-630, 1 mM DTT, 20 ug salmon sperm DNA, 4 C 2 h; protein in a lysate after overexpression; residues 1-688; protein details: FLAG; label: desthiobiotin-dATP
[3] = target: FLAG-ZBTB48 delta ZnF1-9 + ZnF11 mutant (UniProt P10074); conditions: Pull-down: 150 mM NaCl, 50 mM Tris-HCl pH 7.5, 5 mM MgCl2, 0.5% Igepal CA-630, 1 mM DTT, 20 ug salmon sperm DNA, 4 C 2 h; protein in a lysate after overexpression; protein details: FLAG; label: desthiobiotin-dATP
FLAG-ZBTB48 ZnF3 mutant = FLAG-ZBTB48 ZnF3 mutant (UniProt P10074); conditions: Pull-down: 150 mM NaCl, 50 mM Tris-HCl pH 7.5, 5 mM MgCl2, 0.5% Igepal CA-630, 1 mM DTT, 20 ug salmon sperm DNA, 4 C 2 h; protein in a lysate after overexpression; residues 1-688; protein details: FLAG; label: desthiobiotin-dATP
FLAG-ZBTB48 ZnF6 mutant = FLAG-ZBTB48 ZnF6 mutant (UniProt P10074); conditions: Pull-down: 150 mM NaCl, 50 mM Tris-HCl pH 7.5, 5 mM MgCl2, 0.5% Igepal CA-630, 1 mM DTT, 20 ug salmon sperm DNA, 4 C 2 h; protein in a lysate after overexpression; residues 1-688; protein details: FLAG; label: desthiobiotin-dATP
FLAG-ZBTB48 ZnF11 mutant = FLAG-ZBTB48 ZnF11 mutant (UniProt P10074); conditions: Pull-down: 150 mM NaCl, 50 mM Tris-HCl pH 7.5, 5 mM MgCl2, 0.5% Igepal CA-630, 1 mM DTT, 20 ug salmon sperm DNA, 4 C 2 h; protein in a lysate after overexpression; residues 1-688; protein details: FLAG; label: desthiobiotin-dATP
FLAG-ZBTB48 ZnF1 mutant = FLAG-ZBTB48 ZnF1 mutant (UniProt P10074); conditions: Pull-down: 150 mM NaCl, 50 mM Tris-HCl pH 7.5, 5 mM MgCl2, 0.5% Igepal CA-630, 1 mM DTT, 20 ug salmon sperm DNA, 4 C 2 h; protein in a lysate after overexpression; residues 1-688; protein details: FLAG; label: desthiobiotin-dATP
FLAG-ZBTB48 ZnF7 mutant = FLAG-ZBTB48 ZnF7 mutant (UniProt P10074); conditions: Pull-down: 150 mM NaCl, 50 mM Tris-HCl pH 7.5, 5 mM MgCl2, 0.5% Igepal CA-630, 1 mM DTT, 20 ug salmon sperm DNA, 4 C 2 h; protein in a lysate after overexpression; residues 1-688; protein details: FLAG; label: desthiobiotin-dATP
FLAG-ZBTB48 ZnF10 mutant = FLAG-ZBTB48 ZnF10 mutant (UniProt P10074); conditions: Pull-down: 150 mM NaCl, 50 mM Tris-HCl pH 7.5, 5 mM MgCl2, 0.5% Igepal CA-630, 1 mM DTT, 20 ug salmon sperm DNA, 4 C 2 h; protein in a lysate after overexpression; residues 1-688; protein details: FLAG; label: desthiobiotin-dATP
FLAG-ZBTB48 ZnF5 mutant = FLAG-ZBTB48 ZnF5 mutant (UniProt P10074); conditions: Pull-down: 150 mM NaCl, 50 mM Tris-HCl pH 7.5, 5 mM MgCl2, 0.5% Igepal CA-630, 1 mM DTT, 20 ug salmon sperm DNA, 4 C 2 h; protein in a lysate after overexpression; residues 1-688; protein details: FLAG; label: desthiobiotin-dATP
FLAG-ZBTB48 ZnF9 mutant = FLAG-ZBTB48 ZnF9 mutant (UniProt P10074); conditions: Pull-down: 150 mM NaCl, 50 mM Tris-HCl pH 7.5, 5 mM MgCl2, 0.5% Igepal CA-630, 1 mM DTT, 20 ug salmon sperm DNA, 4 C 2 h; protein in a lysate after overexpression; residues 1-688; protein details: FLAG; label: desthiobiotin-dATP
[4] = target: ZBTB48 endogenous (SUDHL4 nuclear extract) (Homo sapiens (SUDHL4 cells)) (UniProt P10074); conditions: Pull-down: 150 mM NaCl, 50 mM Tris-HCl pH 7.5, 5 mM MgCl2, 0.5% Igepal CA-630, 1 mM DTT, 20 ug salmon sperm DNA, 4 C 2 h; protein in an extract; label: desthiobiotin-dATP
FLAG-ZBTB48 R614A = FLAG-ZBTB48 R614A (UniProt P10074); conditions: Pull-down: 150 mM NaCl, 50 mM Tris-HCl pH 7.5, 5 mM MgCl2, 0.5% Igepal CA-630, 1 mM DTT, 20 ug salmon sperm DNA, 4 C 2 h; protein in a lysate after overexpression; residues 1-688; protein details: FLAG; label: desthiobiotin-dATP

Row | Sequence | binding result [1] | binding result (FLAG-ZBTB48 R611A/R614A) | binding result (FLAG-ZBTB48 WT) | binding result [3] | binding result (FLAG-ZBTB48 ZnF11 mutant) | binding result (FLAG-ZBTB48 ZnF10 mutant) | binding result [4] | further results
1 | CTCACTTGTTTCTTTGCATGTTGGCTTAGCTTGGCGGGCTCCCAACTGGTGACTGGTTAG / AGCTAACCAGTCACCAGTTGGGAGCCCGCCAAGCTAAGCCAACATGCAAAGAAACAAGTG [CIITA pIII probe 5] | no binding | – | – | – | – | – | – | –
2 | TTGATGATCCCTCACTTGATGATCCCTCACTTGATGATCCCTCACTTGATGATCCCTCAC / AAGTGAGGGATCATCAAGTGAGGGATCATCAAGTGAGGGATCATCAAGTGAGGGATCATC [CIITA pIII probe e.2 (ARE-2; listed as f.2 in Dataset EV5)] | binds | no binding | binds | no binding | no binding | no binding | binds | binding result (FLAG-ZBTB48 R611A): binds more weakly; binding result (FLAG-ZBTB48 ZnF8 mutant): binds; binding result [2]: no binding; binding result (FLAG-ZBTB48 ZnF4 mutant): binds; binding result (FLAG-ZBTB48 ZnF3 mutant): binds; binding result (FLAG-ZBTB48 ZnF6 mutant): binds; binding result (FLAG-ZBTB48 ZnF1 mutant): binds; binding result (FLAG-ZBTB48 ZnF7 mutant): binds; binding result (FLAG-ZBTB48 ZnF5 mutant): binds; binding result (FLAG-ZBTB48 ZnF9 mutant): binds
3 | CTGGGCATCCGAAGGCATCCTTGGGGAAGCTGAGGGCACGAGGAGGGGCTGCCAGACTCC / AGGGAGTCTGGCAGCCCCTCCTCGTGCCCTCAGCTTCCCCAAGGATGCCTTCGGATGCCC [CIITA pIII probe 7] | no binding | – | – | – | – | – | – | –
4 | TTGTTTCTTTGCATGTTGGCTTAGCTTGGCTTGTTTCTTTGCATGTTGGCTTAGCTTGGC / AAGCCAAGCTAAGCCAACATGCAAAGAAACAAGCCAAGCTAAGCCAACATGCAAAGAAAC [CIITA pIII probe f (listed as g in Dataset EV5)] | no binding | – | – | – | – | – | – | –
5 | CTTAAGGGAGTGTGGTAAAATTAGAGGGTGCTTAAGGGAGTGTGGTAAAATTAGAGGGTG / AGCACCCTCTAATTTTACCACACTCCCTTAAGCACCCTCTAATTTTACCACACTCCCTTA [CIITA pIII probe b] | binds | – | – | – | – | – | – | –
6 | TTAGGGTTAGGGTTAGGGTTAGGGTTAGGGTTAGGGTTAGGGTTAGGGTTAGGGTTAGGG / AACCCTAACCCTAACCCTAACCCTAACCCTAACCCTAACCCTAACCCTAACCCTAACCCT [telomeric TTAGGG] | binds | no binding | binds | no binding | no binding | binds | binds | binding result (FLAG-ZBTB48 R614A): binds more weakly
